PMC6238398, “The crystal structure of Staufen1 in complex with a physiological RNA sheds light on substrate selectivity” (Life Science Alliance, 2018)
Positions count from the first letter of the chain named. For some assays here: Weaker means in comparison with the reference protein, sequence or condition of that experiment. Where a protein sequence is shown, tags need not be part of it. For some assays here: For at least one entry, the source does not settle the construct or the ends of the probe. For some assays here: At least one verdict rests on a figure or table, not on a statement of the authors.

Tests used:
[1] = target: T1, dStau wt (Drosophila melanogaster) (UniProt P25159); assay: fluorescence anisotropy; conditions: FA: 10 nM 5'-FAM RNA, 20 mM Hepes pH 7.5, 150 mM KCl, RT (19-21 C); recombinant protein; residues 570-786; label: 5'-6-FAM
T1 sequence (looked up): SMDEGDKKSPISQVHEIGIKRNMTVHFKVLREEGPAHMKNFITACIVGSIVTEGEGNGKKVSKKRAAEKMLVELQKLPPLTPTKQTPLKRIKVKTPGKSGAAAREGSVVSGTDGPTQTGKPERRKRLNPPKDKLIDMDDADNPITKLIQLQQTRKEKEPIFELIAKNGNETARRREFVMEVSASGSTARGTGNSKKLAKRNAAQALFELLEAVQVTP

[2] = target: T2, dStau Q718A (Drosophila melanogaster) (UniProt P25159); assay: fluorescence anisotropy; conditions: FA: 10 nM 5'-FAM RNA, 20 mM Hepes pH 7.5, 150 mM KCl, RT (19-21 C); recombinant protein; residues 570-786; label: 5'-6-FAM
T2 sequence (looked up): T1 sequence (looked up) with Q149A

“CGCUAUUCGCCUUAGAUGUAUCUGGGUGGCUGCUCCACUAAAGCCCGGGAAUAUGCAACCAGUUACAUUUGAGGCCAUUUGGGCUUAAGCG [bcd III]”: binds [1]; binds more weakly [2].
